One substance from paper PMC8073056 can be followed below.

Chains of the proteins cited; added tags and fusions are not shown.
UniProt O95271: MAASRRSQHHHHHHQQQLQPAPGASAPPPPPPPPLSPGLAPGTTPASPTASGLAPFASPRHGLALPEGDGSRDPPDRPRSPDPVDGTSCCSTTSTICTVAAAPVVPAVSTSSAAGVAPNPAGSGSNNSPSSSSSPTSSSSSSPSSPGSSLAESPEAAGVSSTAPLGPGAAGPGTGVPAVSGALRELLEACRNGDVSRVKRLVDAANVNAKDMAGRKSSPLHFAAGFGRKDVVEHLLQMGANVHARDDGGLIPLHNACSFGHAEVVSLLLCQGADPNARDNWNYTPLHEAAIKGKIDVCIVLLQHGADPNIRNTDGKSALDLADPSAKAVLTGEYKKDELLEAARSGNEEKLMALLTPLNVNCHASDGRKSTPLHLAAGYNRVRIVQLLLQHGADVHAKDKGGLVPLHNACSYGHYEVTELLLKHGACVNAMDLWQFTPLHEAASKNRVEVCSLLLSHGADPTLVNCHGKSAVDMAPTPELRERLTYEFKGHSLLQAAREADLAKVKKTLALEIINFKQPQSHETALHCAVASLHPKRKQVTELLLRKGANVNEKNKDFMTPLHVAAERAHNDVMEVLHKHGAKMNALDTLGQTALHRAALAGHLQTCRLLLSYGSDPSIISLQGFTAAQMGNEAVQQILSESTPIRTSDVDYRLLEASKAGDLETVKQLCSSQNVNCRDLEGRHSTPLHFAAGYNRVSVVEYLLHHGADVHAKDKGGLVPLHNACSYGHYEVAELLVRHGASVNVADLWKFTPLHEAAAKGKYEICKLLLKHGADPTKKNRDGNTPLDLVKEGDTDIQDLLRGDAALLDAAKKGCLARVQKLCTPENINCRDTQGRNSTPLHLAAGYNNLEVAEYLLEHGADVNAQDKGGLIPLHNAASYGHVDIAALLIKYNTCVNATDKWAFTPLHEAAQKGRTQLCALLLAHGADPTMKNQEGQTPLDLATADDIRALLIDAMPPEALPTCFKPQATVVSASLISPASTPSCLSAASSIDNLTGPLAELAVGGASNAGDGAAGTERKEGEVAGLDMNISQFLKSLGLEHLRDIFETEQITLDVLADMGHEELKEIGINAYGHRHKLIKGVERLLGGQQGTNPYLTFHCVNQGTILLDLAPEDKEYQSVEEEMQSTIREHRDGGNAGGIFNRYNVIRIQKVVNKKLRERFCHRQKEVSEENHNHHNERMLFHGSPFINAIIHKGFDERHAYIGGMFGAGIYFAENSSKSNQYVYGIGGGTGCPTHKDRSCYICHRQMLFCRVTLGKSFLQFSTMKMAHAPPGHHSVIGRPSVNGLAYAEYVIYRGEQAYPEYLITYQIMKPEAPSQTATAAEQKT

The target of the test is His-PC-Arpin (Protein C-tagged human Arpin, wild type) (human) (UniProt Q7Z6K5). Nature of the test: affinity purification with mass spectrometry; His-PC-Arpin immunoprecipitated on HPC4-coupled beads from lysate of stable 293 cells; 50 mM Hepes pH 7.7, 150 mM NaCl, 1 mM CaCl2, 1% NP40, 0.5% Na deoxycholate, 0.1% SDS; 3 h at 4 °C; silver staining, specific bands identified by LC-MS/MS; control: cell line with the empty plasmid.

Results are given in words; binding and its absence hold for the method and conditions named. In cells and extracts the contact can be indirect. A yes stands for co-enrichment or nearness to the bait. Other partners may have been found.

On to “Tankyrase 1 (endogenous, 293 and 293T cells) (from UniProt O95271 1-1327) (enzyme)”, for which the binding entry is recorded as “binds”.
